Laboratory results published in PMC6135800, “STAT3-coordinated migration facilitates the dissemination of diffuse large B-cell lymphomas” (Nature Communications, 2018).
No constants are given. Whether binding was seen depends on the method and setting. Binding seen in cells or lysates may run through a third protein. Some entries that bind do so weakly or less than the wild type. Tags and fused reporters may be left off the sequences shown. Values belong to the binder of their own block, whether it stands above or below them.

Chains of the proteins cited; added tags and fusions are not shown.
UniProt P61586: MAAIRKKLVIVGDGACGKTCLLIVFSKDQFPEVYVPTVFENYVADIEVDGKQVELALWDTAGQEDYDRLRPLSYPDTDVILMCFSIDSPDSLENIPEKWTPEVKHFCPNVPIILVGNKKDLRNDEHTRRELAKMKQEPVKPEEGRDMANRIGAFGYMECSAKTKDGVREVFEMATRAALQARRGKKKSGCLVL

How the values were obtained:
FLAG-RhoA = FLAG-RhoA (UniProt P61586); experiment: co-IP; HT cells stably expressing FLAG-RhoA, transfected with the indicated plasmids; 1% Nonidet P-40 lysis buffer (50 mM Tris-HCl pH 7.4, 150 mM NaCl, 5% glycerol, 1 mM Na3VO4); antibody 2 h at 4 °C, then Protein A/G beads 2 h; western blot
[1] = target: T1, RhoGDIγ (transfected into HT cells stably expressing FLAG-RhoA) (UniProt Q99819); experiment: as above
T1 sequence: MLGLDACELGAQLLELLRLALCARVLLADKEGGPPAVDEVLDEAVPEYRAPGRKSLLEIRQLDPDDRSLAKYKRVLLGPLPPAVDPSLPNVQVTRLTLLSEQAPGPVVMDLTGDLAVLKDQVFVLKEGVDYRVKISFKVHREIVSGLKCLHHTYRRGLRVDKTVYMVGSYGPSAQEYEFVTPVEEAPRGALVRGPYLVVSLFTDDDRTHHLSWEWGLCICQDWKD

binding (FLAG-RhoA): binds
B1: RhoGDIγ (transfected into HT cells stably expressing FLAG-RhoA) (protein, UniProt Q99819 1-225)
chain: T1 sequence

binding [1]: binds
B2: GST-RhoH (natural protein, UniProt Q15669 1-191, looked up)
chain: MLSSIKCVLVGDSAVGKTSLLVRFTSETFPEAYKPTVYENTGVDVFMDGIQISLGLWDTAGNDAFRSIRPLSYQQADVVLMCYSVANHNSFLNLKNKWIGEIRSNLPCTPVLVVATQTDQREMGPHRASCVNAMEGKKLAQDVRAKGYLECSALSNRGVQQVFECAVRTAVNQARRRNRRRLFSINECKIF
notes: RhoH; the only GST vector named is pEBG-RhoH, made by inserting full-length cDNAs (RhoH: NM_001278369); also called GST-tagged RhoH; source: E. coli DH5α, IPTG induction, purified (glutathione-Sepharose, eluted with reduced glutathione)
